From article PMC12411348 come the findings set out here.

Sequences of proteins named here, by UniProt entry; tags and fusion partners are left off. A change or cut given only in a name is not applied to a line headed by its entry.
UniProt P40337: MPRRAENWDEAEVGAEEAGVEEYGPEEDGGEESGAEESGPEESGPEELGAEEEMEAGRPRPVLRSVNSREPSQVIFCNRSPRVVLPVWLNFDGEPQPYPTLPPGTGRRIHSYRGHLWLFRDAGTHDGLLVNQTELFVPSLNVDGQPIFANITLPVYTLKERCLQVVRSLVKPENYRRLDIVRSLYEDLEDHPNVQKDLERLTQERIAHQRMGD
UniProt Q9NQB0: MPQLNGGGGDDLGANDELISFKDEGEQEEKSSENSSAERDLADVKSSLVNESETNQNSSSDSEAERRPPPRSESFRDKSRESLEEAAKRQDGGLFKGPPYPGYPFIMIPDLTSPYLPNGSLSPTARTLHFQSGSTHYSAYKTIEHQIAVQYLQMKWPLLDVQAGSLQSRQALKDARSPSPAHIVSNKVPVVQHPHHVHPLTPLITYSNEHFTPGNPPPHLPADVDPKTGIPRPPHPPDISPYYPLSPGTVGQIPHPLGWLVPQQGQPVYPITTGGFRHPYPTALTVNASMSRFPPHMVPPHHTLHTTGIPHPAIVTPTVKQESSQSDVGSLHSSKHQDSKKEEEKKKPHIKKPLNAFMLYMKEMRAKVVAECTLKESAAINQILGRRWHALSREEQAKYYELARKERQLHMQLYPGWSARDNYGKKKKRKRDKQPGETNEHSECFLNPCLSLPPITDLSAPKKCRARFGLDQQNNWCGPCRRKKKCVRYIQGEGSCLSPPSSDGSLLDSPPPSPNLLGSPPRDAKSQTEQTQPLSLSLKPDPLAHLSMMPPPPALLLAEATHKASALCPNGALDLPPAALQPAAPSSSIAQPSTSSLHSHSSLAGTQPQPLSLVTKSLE

Assay [1] concerns the target recombinant human pVHL (CUSABIO) (human) (UniProt P40337). The experiment in a line: SPR; BIAcore T200, pVHL immobilised on a CM5 chip by amine coupling (pH 4.5 sodium acetate), TCF7L2(1–456) as analyte at 0.36–1.82 μM in PBS, 10 μL/min, steady-state affinity analysis; both purified. A general note: Surface plasmon resonance follows binding to a sensor surface in real time, without labels.

Assay [2] has as its target endogenous TCF7L2 (human (endogenous in HEK293T)) (UniProt Q9NQB0). Briefly: co-IP; endogenous proteins in HEK293T cells; IP lysis buffer (50 mM Tris–HCl pH 7.5, 150 mM NaCl, 1 mM EDTA, 10% glycerol, 1% Triton X-100), antibody overnight at 4 °C, Protein A/G agarose beads, immunoblot. In general terms: A western blot detects proteins with antibodies after separation by electrophoresis.

Assay [3] has as its target pVHL expressed in transfected HEK293T cells for domain mapping (human) (UniProt P40337). Briefly: co-IP; transfected HEK293T cells; IP lysis buffer (50 mM Tris–HCl pH 7.5, 150 mM NaCl, 1 mM EDTA, 10% glycerol, 1% Triton X-100), antibody overnight at 4 °C, Protein A/G agarose beads, immunoblot.

These are yes or no findings as the source states them, for the method shown. Binding can be weak; no strength is given. For part of these data: Binding seen in cells or lysates may run through a third protein.

Regarding “recombinant TCF7L2(1–456) (from UniProt Q9NQB0) (domain or fragment)”, the binding entry in assay [1] was “binds”. Regarding “endogenous von Hippel-Lindau protein (pVHL) (from UniProt P40337-1 1-213)”, in assay [2], the binding result is “binds”.

For the substance “TCF7L2 (328–415) (from UniProt Q9NQB0-7) (domain or fragment)”, the binding result in assay [3] is “binds”.
